Earlier results as cited in patent US8784793B2, “Conformable solvent-based bandage and coating material” (Rochal Industries LLP, priority 2005, dated 2014).
At least one read-out could not be matched to a standard name with certainty.

Details: see U.S. Pat. No. 5,103,812; cited from earlier work

C[Si](C)(C)O[Si](C)(C)C [hexamethyldisiloxane]
solubility parameter: 5.7 (cal/cm^3)^1/2
